Source: patent publication US20100136580A1 (Genentech, published 2010)
Results are given in words; binding and its absence hold for the method and conditions named. For some of these results: Binding seen in cells or lysates may run through a third protein. Some results given as binding are weak or reduced against the parent protein; the word gives no strength. Where a sequence is shown, tags or fusion partners need not be part of it.

T1: GST-Dvl2PDZ fusion protein (human, UniProt O14641 248-364)
T1 construct: range 248-364; Made with the pGEX E. coli expression system; also called GST-PDZ fusion protein; not shown: glutathione S-transferase (GST) encoded by plasmid pGEX
T1 sequence (looked up): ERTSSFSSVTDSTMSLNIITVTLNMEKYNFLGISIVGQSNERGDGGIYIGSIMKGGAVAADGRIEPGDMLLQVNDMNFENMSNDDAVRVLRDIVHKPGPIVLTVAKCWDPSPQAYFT

T2: endogenous Dvl3 (HEK293S cell lysate) (human) (UniProt Q92997)
T2 sequence (looked up): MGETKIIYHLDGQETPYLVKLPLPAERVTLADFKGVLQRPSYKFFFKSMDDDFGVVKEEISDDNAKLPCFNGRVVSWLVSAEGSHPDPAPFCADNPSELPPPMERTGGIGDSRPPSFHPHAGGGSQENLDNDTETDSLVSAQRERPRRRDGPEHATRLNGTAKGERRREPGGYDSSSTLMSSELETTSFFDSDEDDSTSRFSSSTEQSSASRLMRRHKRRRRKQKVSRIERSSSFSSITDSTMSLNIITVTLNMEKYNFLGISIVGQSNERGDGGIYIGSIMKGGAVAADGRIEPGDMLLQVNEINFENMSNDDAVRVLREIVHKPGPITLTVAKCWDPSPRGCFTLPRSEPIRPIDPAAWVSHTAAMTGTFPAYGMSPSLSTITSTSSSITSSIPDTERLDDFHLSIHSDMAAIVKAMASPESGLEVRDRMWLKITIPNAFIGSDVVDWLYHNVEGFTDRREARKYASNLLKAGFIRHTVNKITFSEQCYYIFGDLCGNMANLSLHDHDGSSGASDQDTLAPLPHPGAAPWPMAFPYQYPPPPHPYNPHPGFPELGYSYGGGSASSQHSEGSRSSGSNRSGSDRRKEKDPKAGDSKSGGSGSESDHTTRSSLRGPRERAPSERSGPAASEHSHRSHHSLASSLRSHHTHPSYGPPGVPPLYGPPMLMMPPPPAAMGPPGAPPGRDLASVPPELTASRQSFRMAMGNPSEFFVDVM

T3: endogenous Dvl1 (HEK293S cell lysate) (human) (UniProt O14640)
T3 sequence (looked up): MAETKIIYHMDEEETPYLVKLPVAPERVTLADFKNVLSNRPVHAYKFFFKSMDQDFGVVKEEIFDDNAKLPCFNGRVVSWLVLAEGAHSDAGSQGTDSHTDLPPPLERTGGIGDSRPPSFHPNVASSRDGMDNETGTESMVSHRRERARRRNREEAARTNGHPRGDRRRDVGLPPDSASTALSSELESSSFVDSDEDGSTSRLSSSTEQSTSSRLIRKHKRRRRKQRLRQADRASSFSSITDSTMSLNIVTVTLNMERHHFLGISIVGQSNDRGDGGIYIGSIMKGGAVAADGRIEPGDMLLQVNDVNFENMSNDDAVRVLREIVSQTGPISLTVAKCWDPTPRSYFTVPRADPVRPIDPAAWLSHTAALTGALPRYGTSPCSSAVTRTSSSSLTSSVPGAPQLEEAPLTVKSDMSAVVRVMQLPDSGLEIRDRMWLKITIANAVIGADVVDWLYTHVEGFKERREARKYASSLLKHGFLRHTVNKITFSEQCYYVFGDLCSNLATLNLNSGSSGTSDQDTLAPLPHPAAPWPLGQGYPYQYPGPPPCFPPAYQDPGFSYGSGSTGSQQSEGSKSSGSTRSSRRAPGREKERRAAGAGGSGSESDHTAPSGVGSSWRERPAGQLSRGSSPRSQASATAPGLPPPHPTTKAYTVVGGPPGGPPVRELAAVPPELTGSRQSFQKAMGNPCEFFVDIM


Assays:
[1] = molecular target: T1, GST-Dvl2PDZ fusion protein; assay: phage display selection on GST-Dvl2PDZ
Protocol: The libraries were cycled through rounds of binding selection with a GST-Dvl2PDZ fusion protein coated on 96-well Maxisorp immunoplates as the capture target. Phage were propagated in E. coli XL1-blue with M13-KO7 helper phage and 10 μM IPTG. After four rounds of binding selection, individual phage clones were analyzed in a high-throughput phage ELISA, and positive clones were subjected to DNA sequence analysis.
We used decapeptide libraries fused to the C-terminus or N-terminus of the phage coat protein. The library contained NNK degenerate codons that encoded all 20 natural amino acids. The possible occurrence of amber stop codons in the degenerate codon also provided for the display of shorter peptides for the C-terminal library. Each library was cycled through four rounds of binding selection with immobilized GST-Dvl2PDZ fusion protein as the capture target.

[2] = molecular target: T2, endogenous Dvl3 (HEK293S cell lysate) (human); assay: GST pull-down from HEK293S cell lysate, western blot
[3] = molecular target: T3, endogenous Dvl1 (HEK293S cell lysate) (human); assay: as above
[4] = molecular target: T2, endogenous Dvl3 (HEK293S cell lysate) (human); assay: GST pull-down from HEK293 cell lysate, western blot
[5] = molecular target: T3, endogenous Dvl1 (HEK293S cell lysate) (human); assay: as above

Binder | binding [1] | binding [2] | binding [3] | binding [4] | binding [5]
GGGKWYGWL (peptide, not shown: a dimerising Fc or GST) [GST-DVLpep fusion protein (GST fused with peptide … at its C-terminus)] |  | binds | binds | binds | binds
VLWSDFPPR [SEQ ID NO 126] | binds |  |  |  | 

Next, values leading:

binding [1] | binding [2] | binding [3] | binding [4] | binding [5] | Binder
binds |  |  |  |  | IWVDGPLYT [SEQ ID NO 163]
binds |  |  |  |  | ETWIDGPM [SEQ ID NO 155]
